{
  "sequences": {"note": "By UniProt entry, the sequences of proteins in these tests, tags left out. Where a name states a change or a piece, a line headed by the entry shows the natural chain unless it says otherwise.", "UniProt P11473": "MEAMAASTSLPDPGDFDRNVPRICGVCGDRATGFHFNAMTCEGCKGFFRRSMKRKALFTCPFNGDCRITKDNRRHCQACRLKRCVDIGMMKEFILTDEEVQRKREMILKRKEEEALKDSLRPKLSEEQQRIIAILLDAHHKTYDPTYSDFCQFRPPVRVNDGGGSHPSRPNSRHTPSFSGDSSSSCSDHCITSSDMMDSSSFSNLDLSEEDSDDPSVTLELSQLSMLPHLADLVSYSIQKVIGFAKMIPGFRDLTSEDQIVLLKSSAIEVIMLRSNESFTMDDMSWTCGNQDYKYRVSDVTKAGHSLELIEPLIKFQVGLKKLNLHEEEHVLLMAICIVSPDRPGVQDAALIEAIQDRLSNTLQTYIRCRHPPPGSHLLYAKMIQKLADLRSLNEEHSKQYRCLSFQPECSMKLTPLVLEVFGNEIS"},
  "source": "PubChem BioAssay AID504847",
  "about": "(National Center for Advancing Translational Sciences (NCATS), 2011)",
  "note": "The whole screen tested about 400,000 compounds, of which about 3,700 (0.93%) were called active. This list was built around the results that the source calls inconclusive (neither active nor inactive); the mix of calls is not that of the screen. The call rests on the fitted dose curve; in most records, active means well fitted inhibition curve with a large enough effect; inconclusive means small, poorly fitted or top-dose-only effect, or another doubt; inactive means no such curve, though single readings can be large or run the other way. Where the call is inconclusive, the potency comes from a doubtful curve fit. On the % scale 0 is the no-effect control and ±100 the full control effect; potency means the concentration at half of the fitted maximal effect.",
  "data": [
    {"biological_target": "Vitamin D3 receptor (Homo sapiens) (UniProt P11473)", "experiment": "Inhibitors of the vitamin D receptor (VDR): qHTS", "settings": "VDR-SRC2-3 peptide fluorescence polarization, 2 h; max response, negative = inhibition: stronger effect = lower value", "in_short": "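Two reagent solutions held at 4 deg C in the dark were dispensed, compounds pinned at 23 nl, and the mixture incubated 2 h at room temperature. Read-out: fluorescence polarization of VDR–SRC2-3 peptide binding.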", "values": [
      {"smiles": "COc1ccc(S(=O)(=O)Nc2cccc(-c3ccc4nncn4n3)c2)c(OC)c1", "Potency": "inconclusive: 79.4 µM [inhibitor, single point]"},
      {"smiles": "Cc1cccc(NC(=O)CN2C(=O)N/C(=C/c3ccc(C)o3)C2=O)c1", "Potency": "inconclusive: 70.8 µM [inhibitor, partial curve, poor fit]"},
      {"smiles": "Cc1ccc(CN(Cc2cc3cc4c(cc3[nH]c2=O)OCCO4)Cc2nnnn2Cc2ccco2)cc1", "Potency": "inconclusive: 70.8 µM [inhibitor, single point]"},
      {"smiles": "Cc1ccc(-c2cc(C(=O)OCC(=O)N(C)c3c(N)n(Cc4ccccc4)c(=O)[nH]c3=O)c3ccccc3n2)o1", "max response, negative = inhibition": "inactive: -4.32%"},
      {"smiles": "CC(C)(C)c1nnc(NC(=O)C2c3ccccc3Oc3ccccc32)s1", "Potency": "active: 35.5 µM"},
      {"smiles": "Cc1cc(C(=O)CSc2ccc(F)cc2)cc(C)c1O", "Potency": "inconclusive: 100 µM [inhibitor, single point]"},
      {"smiles": "CCOc1cc(/C=C2\\SC(=S)N(Nc3ccccc3)C2=O)ccc1O", "max response, negative = inhibition": "inactive: 4.89%"},
      {"smiles": "Cc1ccc2[nH]c(=O)c(CNS(=O)(=O)c3ccccc3)c(-c3ccccc3)c2c1", "Potency": "inconclusive: 100 µM [inhibitor, partial curve, poor fit]"},
      {"smiles": "Cc1ccc(N2CC(c3nc(-c4ccc(Cl)cc4)no3)CC2=O)cc1F", "note": "(stereo not drawn)", "max response, negative = inhibition": "inactive: 12.9%"},
      {"smiles": "N#CC1=C(N)SC(N)=C(C#N)C1c1c(Cl)cccc1Cl", "Potency": "inconclusive: 50.1 µM [inhibitor, partial curve, poor fit]"},
      {"smiles": "COc1ccccc1-c1ccc2ncnc(N(C)Cc3ccco3)c2c1", "Potency": "active: 44.7 µM"},
      {"smiles": "CCC(C)NC(=O)C1CCC(CNS(=O)(=O)c2ccc3c(c2)CC(C)N3C(C)=O)CC1", "note": "(stereo not drawn)", "Potency": "inconclusive: 14.1 µM [inhibitor, partial curve, poor fit]"},
      {"smiles": "CC(=O)[C@H](CC(C)C)NC(=O)[C@@H](CC(C)C)NC(=O)[C@H](CC(C)C)NC(=O)OCc1ccccc1", "Potency": "inconclusive: 89.1 µM [inhibitor, partial curve, poor fit]"},
      {"smiles": "Cc1cccc(CN2CCN(C(=O)CN(C)C(C)C(=O)Nc3ccc(C(N)=O)cc3)CC2)c1", "note": "(stereo not drawn)", "Potency": "inconclusive: 100 µM [inhibitor, single point]"},
      {"smiles": "CCNC(=O)O/N=C(\\C)c1sc(-c2ccc(Cl)cc2)nc1C", "max response, negative = inhibition": "inactive: -6.18%"},
      {"smiles": "CC(=O)OC(C)C1C2=C(C(=O)CC1(C)O)C(=O)c1c(ccc(-c3ccc4c(c3O)C(=O)C3=C(C4=O)C(C(C)OC(C)=O)C(C)(O)CC3=O)c1O)C2=O", "note": "(stereo not drawn)", "Potency": "inconclusive: 70.8 µM [inhibitor, single point]"},
      {"smiles": "Cc1ccc(C)c(CN2C(=O)COc3ccccc32)c1", "Potency": "inconclusive: 70.8 µM [inhibitor, partial curve]"},
      {"smiles": "NC(=S)NNC(=O)Nc1cccc(Cl)c1", "max response, negative = inhibition": "inactive: -9.65%"},
      {"smiles": "C[C@@H]1NC(=O)c2cc([N+](=O)[O-])cc(I)c2NCCCC[C@@H](C(N)=O)NC(=O)[C@H](CC(N)=O)NC1=O", "max response, negative = inhibition": "inactive: -4.55%"},
      {"smiles": "O=C(c1cnn2c(C(F)F)cc(-c3ccccc3)nc12)N1CCCCC1c1cccnc1", "note": "(stereo not drawn)", "max response, negative = inhibition": "inactive: 6.97%"},
      {"smiles": "CCCCC(=O)NC(=S)NNC(=O)c1ccc(Cl)cc1Cl", "Potency": "inconclusive: 70.8 µM [inhibitor, partial curve, poor fit]"},
      {"smiles": "COc1ccccc1NC(=O)CSC1=NCCN1", "Potency": "inconclusive: 89.1 µM [inhibitor, single point]"},
      {"smiles": "CCOc1cccc2sc(=NC(=O)CCS(=O)(=O)c3ccccc3)n(CC)c12", "Potency": "inconclusive: 79.4 µM [inhibitor, partial curve, poor fit]"},
      {"smiles": "CCOc1ccc(NC(=O)Cn2cc(C(=O)CC)c3ccccc32)cc1", "Potency": "active: 79.4 µM"},
      {"smiles": "COc1ccc(-c2cc(=S)ss2)cc1", "Potency": "active: 39.8 µM"},
      {"smiles": "NC(=O)C1CCCN(CC(O)COCc2ccc(Cl)cc2)C1", "note": "(stereo not drawn)", "max response, negative = inhibition": "inactive: -6.61%"},
      {"smiles": "Nn1c(SCC(=O)Nc2ccc3c(c2)OCCO3)nnc(CCC(=O)O)c1=O", "Potency": "inconclusive: 39.8 µM [inhibitor, single point]"},
      {"smiles": "C=CCNc1nc(-c2ccc(O)c(C(N)=O)c2)cs1", "Potency": "inconclusive: 35.5 µM [inhibitor, partial curve, poor fit]"},
      {"smiles": "O=C(Nc1ccncc1Cl)c1ccncc1", "max response, negative = inhibition": "inactive: 2.18%"},
      {"smiles": "CCC(=O)N(CC(=O)Nc1sc(C)c(C)c1C(N)=O)C1CCCCC1", "max response, negative = inhibition": "inactive: 11.7%"},
      {"smiles": "CC1CCC(NC(=O)CCCn2sc3ccccc3c2=O)CC1", "note": "(stereo not drawn)", "Potency": "inconclusive: 39.8 µM [inhibitor, single point]"},
      {"smiles": "O=[N+]([O-])c1ccc2[nH]c(O)c(N=Nc3ccc(F)cc3)c2c1", "Potency": "inconclusive: 89.1 µM [inhibitor, single point]"},
      {"smiles": "O=C(Nc1ccccc1)c1sc2cc(C(F)(F)F)cnc2c1-c1cccs1", "Potency": "inconclusive: 39.8 µM [inhibitor, single point]"},
      {"smiles": "N#C/C(=C\\c1ccc(O)c(O)c1)C(=O)OCCc1cccs1", "Potency": "inconclusive: 39.8 µM [inhibitor, partial curve]"},
      {"smiles": "Cn1nnnc1Sc1ncnc2scc(-c3ccc[nH]3)c12", "Potency": "inconclusive: 70.8 µM [inhibitor, partial curve, poor fit]"},
      {"smiles": "C1COC(NC(C2CC2)C2CC2)=N1", "Potency": "inconclusive: 35.5 µM [inhibitor, partial curve, poor fit]"},
      {"smiles": "COC(=O)c1ccccc1NC(=S)NC(=O)C1CC1", "max response, negative = inhibition": "inactive: 2.34%"},
      {"smiles": "COc1ccc(CCn2c(N)c(C(=O)NCc3ccco3)c3nc4ccccc4nc32)cc1", "Potency": "inconclusive: 100 µM [inhibitor, single point]"},
      {"smiles": "Cc1nc2c(C(=O)N(C)Cc3ccccc3)c[nH]n2c(=O)c1Cc1ccc(Cl)cc1", "Potency": "inconclusive: 100 µM [inhibitor, partial curve, poor fit]"},
      {"smiles": "COc1ccc(-c2c(C#Cc3ccsc3)c3cc(Br)ccc3n2C)cc1", "Potency": "inconclusive: 100 µM [inhibitor, partial curve, poor fit]"},
      {"smiles": "CCOC(CN=c1nc(N(C)C)ss1)OCC", "Potency": "inconclusive: 12.6 µM [inhibitor, partial curve, poor fit]"},
      {"smiles": "O=C(Nc1ccccc1C(=O)N1CCOCC1)c1ccc(CSc2ccccc2)cc1", "Potency": "inconclusive: 89.1 µM [inhibitor, single point]"},
      {"smiles": "Cc1cc(N2CCCCCC2)nc2ccc(F)cc12", "max response, negative = inhibition": "inactive: -3.14%"},
      {"smiles": "CC(NC(=O)Cc1ccc(-c2ccccc2)cc1)c1ccccc1", "note": "(stereo not drawn)", "Potency": "inconclusive: 89.1 µM [inhibitor, partial curve, poor fit]"},
      {"smiles": "O=C(CNC(=O)c1ccncc1)N/N=C/c1ccccn1", "max response, negative = inhibition": "inactive: 3.84%"},
      {"smiles": "Cc1c(Cc2ccc3c(c2)OCO3)sc(NC(=O)C2CC2)c1C(N)=O", "Potency": "active: 50.1 µM"},
      {"smiles": "Cc1ccc(-c2csc(N)n2)s1", "Potency": "inconclusive: 79.4 µM [inhibitor, partial curve, poor fit]"},
      {"smiles": "CNc1ccc(Br)cc(C(=O)/C=C/c2cc(OC)ccc2OC)c1=O", "Potency": "inconclusive: 56.2 µM [inhibitor, partial curve, poor fit]"},
      {"smiles": "CCN1C=C(Cc2ccc(OC)cc2)C2=C(C1)C(c1ccc(OC)cc1)C(C#N)=C(N)O2", "note": "(stereo not drawn)", "max response, negative = inhibition": "inactive: 32.3%"},
      {"smiles": "Cc1noc(NS(=O)(=O)c2ccc(NC(=O)C(F)(F)F)cc2)c1C", "Potency": "inconclusive: 2.82 µM [inhibitor, full curve]"},
      {"smiles": "CCN1CCC(n2nccc2NC(=O)c2ccccc2Cl)CC1", "max response, negative = inhibition": "inactive: 0.566%"},
      {"smiles": "CCOC(=O)CSC1=NC(=O)/C(=C\\c2ccc(Cl)cc2)S1", "Potency": "active: 79.4 µM"},
      {"smiles": "O=c1[nH]c(/C=C/c2cccc([N+](=O)[O-])c2)c([N+](=O)[O-])c(=O)[nH]1", "Potency": "active: 28.2 µM"},
      {"smiles": "CCN(CC)c1ccc(N2C(=O)CSC2=S)cc1", "Potency": "inconclusive: 89.1 µM [inhibitor, single point]"},
      {"smiles": "O=C1Nc2ccccc2C1=Nc1ccc(F)cc1", "Potency": "inconclusive: 89.1 µM [inhibitor, single point]"},
      {"smiles": "O=C(O)CC/C(=C\\c1cc2c(cc1Br)OCO2)c1nc2ccccc2s1", "Potency": "inconclusive: 100 µM [inhibitor, single point]"},
      {"smiles": "CCc1nnc(N/N=C/c2ccc(N3CCC(C)CC3)c([N+](=O)[O-])c2)n1N", "Potency": "active: 17.8 µM"},
      {"smiles": "COc1ccc(C(=O)N/N=C/c2ccc(OC)c(CN3CCN(c4ccc(F)cc4)CC3)c2)cc1", "max response, negative = inhibition": "inactive: -7.14%"},
      {"smiles": "CCOC(=O)N1C(=O)[C@@](c2ccc(Cl)cc2)(C(C)C)N1C(=O)OCC", "Potency": "inconclusive: 50.1 µM [inhibitor, partial curve]"},
      {"smiles": "COc1ccc(/C=C/C(=O)c2ccc(O)cc2O)cc1", "Potency": "inconclusive: 35.5 µM [inhibitor, partial curve]"},
      {"smiles": "CC(C)(C)SCCNS(=O)(=O)c1ccc(Cl)cc1", "Potency": "inconclusive: 89.1 µM [inhibitor, single point]"},
      {"smiles": "COc1ccccc1NC(CC(=O)c1ccccc1)C(=O)OCC(=O)c1ccc(C)cc1", "note": "(stereo not drawn)", "max response, negative = inhibition": "inactive: 2.74%"},
      {"smiles": "O=C(CSc1nnc(NC(=O)C2CC(=O)N(c3ccc(F)cc3)C2)s1)NCc1ccco1", "note": "(stereo not drawn)", "Potency": "active: 79.4 µM"},
      {"smiles": "COc1ccc(C(=O)/C=C/C(=O)N(CC(=O)NC2CCCCC2)CC2CCCO2)c(O)c1", "note": "(stereo not drawn)", "Potency": "active: 8.91 µM"},
      {"smiles": "CC(CN1CCCCC1)OC(=O)COc1ccc(Cl)cc1", "note": "(stereo not drawn)", "Potency": "inconclusive: 56.2 µM [inhibitor, partial curve, poor fit]"},
      {"smiles": "CCOC(=O)C1CCCN(C2=NC(=O)/C(=C/c3ccc(OC)cc3OC)S2)C1", "note": "(stereo not drawn)", "Potency": "inconclusive: 89.1 µM [inhibitor, single point]"},
      {"smiles": "CCN1CCN(c2cc(C)c3cc(NC(=S)N4CCN(c5ccccc5F)CC4)ccc3n2)CC1", "max response, negative = inhibition": "inactive: 14.1%"},
      {"smiles": "CC1CCc2c(sc(/N=C/N(C)C)c2C#N)C1", "note": "(stereo not drawn)", "max response, negative = inhibition": "inactive: -18.8%"}
    ]}
  ]
}
